Measured values published in the supplement of paper PMC4604168 (melanoma cell lines).
Some of the results follow. Many values rest on one well or one pass, so single values are uncertain.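 Cells were imaged in 1,536-well plates, and nuclei stained with an antibody against cleaved PARP were counted against all DNA-stained nuclei to give the apoptosis fraction. Screening doses were chosen to leave most cells alive, and resting and induced cleaved-PARP levels differ strongly between cell lines.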

Assays:
Test in all cases: cleaved PARP positive nuclei fraction relative to DMSO control; melanoma cells; higher = more apoptosis
Settings in all cases: library dose: low library concentration; 72 h
MZ2-MEL = tested on: MZ2-MEL
MeWo = tested on: MeWo
RPMI7951 = tested on: RPMI7951
RVH-421 = tested on: RVH-421
SkMel28 = tested on: SkMel28
SkMel2 = tested on: SkMel2
SkMel30 = tested on: SkMel30
SkMel5 = tested on: SkMel5
UACC257 = tested on: UACC257
UACC62 = tested on: UACC62
WM115 = tested on: WM115
WM1716 = tested on: WM1716
WM1745 = tested on: WM1745
WM3526 = tested on: WM3526
WM3619 = tested on: WM3619
WM451Lu = tested on: WM451Lu

| SMILES | cleaved PARP positive nuclei fraction (MZ2-MEL) [%] | cleaved PARP positive nuclei fraction (MeWo) [%] | cleaved PARP positive nuclei fraction (RPMI7951) [%] | cleaved PARP positive nuclei fraction (RVH-421) [%] | cleaved PARP positive nuclei fraction (SkMel28) [%] | cleaved PARP positive nuclei fraction (SkMel2) [%] | cleaved PARP positive nuclei fraction (SkMel30) [%] | cleaved PARP positive nuclei fraction (SkMel5) [%] | cleaved PARP positive nuclei fraction (UACC257) [%] | cleaved PARP positive nuclei fraction (UACC62) [%] | cleaved PARP positive nuclei fraction (WM115) [%] | cleaved PARP positive nuclei fraction (WM1716) [%] | cleaved PARP positive nuclei fraction (WM1745) [%] | cleaved PARP positive nuclei fraction (WM3526) [%] | cleaved PARP positive nuclei fraction (WM3619) [%] | cleaved PARP positive nuclei fraction (WM451Lu) [%] |
| --- | --- | --- | --- | --- | --- | --- | --- | --- | --- | --- | --- | --- | --- | --- | --- | --- |
| Nc1nc(F)nc2c1ncn2[C@@H]1O[C@H](CO)[C@@H](O)[C@@H]1O [fludarabine] + C=CCn1c(=O)c2cnc(Nc3ccc(N4CCN(C)CC4)cc3)nc2n1-c1cccc(C(C)(C)O)n1 [MK1775] (first compound 0.2 µM, partner dose 0.02 µM) | 123 | 1510 | 97.1 | 61.2 | 201 | 387 | 828 | 1420 | 504 | 140 | 320 | 214 | 105 | 241 | 120 | 252 |
| CS(=O)(=O)CCNCc1ccc(-c2ccc3ncnc(Nc4ccc(OCc5cccc(F)c5)c(Cl)c4)c3c2)o1 [lapatinib] + C=CCn1c(=O)c2cnc(Nc3ccc(N4CCN(C)CC4)cc3)nc2n1-c1cccc(C(C)(C)O)n1 [MK1775] (first compound 0.8 µM, partner dose 0.02 µM) | 85.1 | 172 | 69.4 | 37.1 | 200 | 72.1 | 71.1 | 205 | 95.6 | 74 | 53.7 | 118 | 101 | 27.5 | 119 | 46.2 |
| Nc1ncn([C@H]2C[C@H](O)[C@@H](CO)O2)c(=O)n1 [decitabine] + CCc1ccc(CCOc2ccc(CC3SC(=O)NC3=O)cc2)nc1 [pioglitazone] (first compound 0.1 µM, partner dose 2 µM) | 96.6 | 53.7 | 82 | 95.1 | 208 | 60.6 | 44.5 | 227 | 78.7 | 95.7 | 246 | 49.3 | 126 | 133 | 94.2 | 52.5 |
| CC(C)C[C@H](NC(=O)[C@H](Cc1ccccc1)NC(=O)c1cnccn1)B(O)O [Bortezomib] + O=C(O)c1ccc(-c2c[nH]c3ncc(-c4ccccc4)cc23)cc1C1CCCC1 [GSK650394] (first compound 0.001 µM, partner dose 0.16 µM) | 304 | 60.1 | 254 | 53.7 | 40.6 | 116 | 69.3 | 237 | 145 | 87.7 | 146 | 650 | 158 | 70.3 | 493 | 99.4 |
| Nc1nc(F)nc2c1ncn2[C@@H]1O[C@H](CO)[C@@H](O)[C@@H]1O [fludarabine] + COc1cc2ncnc(Nc3ccc(Oc4ccccc4)cc3)c2cc1OC [SrcI1] (first compound 0.2 µM, partner dose 2 µM) | 73.6 | 681 | 56 | 72.9 | 128 | 1160 | 146 | 106 | 84.7 | 94 | 27.3 | 52.7 | 97.6 | 639 | 89.3 | 153 |
| C[C@@H](Oc1cc(-c2cnn(C3CCNCC3)c2)cnc1N)c1c(Cl)ccc(F)c1Cl [Crizotinib] + COc1ccc(COc2ccc(Cc3cnc(N)nc3N)cc2OC)cc1 [GW2580] (first compound 0.2 µM, partner dose 1 µM) | 33.9 | 90.9 | 65.9 | 126 | 179 | 19.2 | 28.3 | 168 | 217 | 83.5 | 143 | 109 | 86.7 | 473 | 102 | 140 |
| CNC(=O)c1cc(Oc2ccc(NC(=O)Nc3ccc(Cl)c(C(F)(F)F)c3)cc2)ccn1 [sorafenib] + O=C(O)c1ccc(-c2c[nH]c3ncc(-c4ccccc4)cc23)cc1C1CCCC1 [GSK650394] (first compound 0.4 µM, partner dose 0.16 µM) | 20.8 | 107 | 91.1 | 97.2 | 37.1 | 87.5 | 64 | 79.7 | 66.7 | 219 | 38.5 | 73.1 | 84.9 | 107 | 86 | 336 |
| C[C@@H](Oc1cc(-c2cnn(C3CCNCC3)c2)cnc1N)c1c(Cl)ccc(F)c1Cl [Crizotinib] + CC1(C)NC(=O)N(c2ccc([N+](=O)[O-])c(C(F)(F)F)c2)C1=O [nilutamide] (first compound 0.2 µM, partner dose 1 µM) | 92.2 | 107 | 28 | 80.7 | 96.6 | 86 | 204 | 38 | 162 | 77.8 | 217 | 57.4 | 83.4 | 96.5 | 101 | 118 |
| C=C(c1ccc(C(=O)O)cc1)c1cc2c(cc1C)C(C)(C)CCC2(C)C [Bexarotene] + CCN(CC)CCCCNc1ncc2cc(-c3cc(OC)cc(OC)c3)c(NC(=O)NC(C)(C)C)nc2n1 [PD173074] (first compound 2 µM, partner dose 0.1 µM) | 139 | 179 | 84.2 | 105 | 141 | 79.5 | 81 | 161 | 65.6 | 96.8 | 64.8 | 151 | 88.6 | 84.9 | 99.7 | 74.1 |
